The values below come from patent US10501479B2, “Benzenesulfonyl-asymmetric ureas and medical uses thereof” (HELSINN HEALTHCARE SA, priority 2016, dated 2019).

Chains of the proteins cited; added tags and fusions are not shown.
UniProt Q92847, whole entry: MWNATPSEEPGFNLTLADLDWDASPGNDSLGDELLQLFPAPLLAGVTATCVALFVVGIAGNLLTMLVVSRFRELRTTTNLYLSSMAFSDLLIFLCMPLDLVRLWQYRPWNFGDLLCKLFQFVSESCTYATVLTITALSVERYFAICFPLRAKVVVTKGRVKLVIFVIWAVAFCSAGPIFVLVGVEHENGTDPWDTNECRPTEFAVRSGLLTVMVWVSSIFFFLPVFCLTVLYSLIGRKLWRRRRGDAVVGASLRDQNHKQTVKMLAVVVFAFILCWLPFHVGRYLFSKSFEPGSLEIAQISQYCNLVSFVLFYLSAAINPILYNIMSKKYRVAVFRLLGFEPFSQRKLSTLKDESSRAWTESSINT

Where two headings read alike, the source gives them in different places. Structures were worked out from names or drawings and are uncertain.

In series [1] the target is recombinant human ghrelin receptor (HEK293/GRLN) (Homo sapiens, UniProt Q92847). The series can be described thus: Ghrelin inverse agonist potency (EC50) with IP-1 (IP-One HTRF) assay. The conditions noted are these: IP-1 assay. As to the method: Evaluation of Ghrelin Inverse Agonist Potency (EC50) with IP-1 Assay:
HEK293 cells stably expressing recombinant human ghrelin receptor (HEK293/GRLN) were used in the IP-One HTRF assay. One day before the test, cells were seeded at a density of 1.5×10^4/well in a Matrigel® coated 384-well plate with 30 μL of complete Dulbecco's Modified Eagle's Medium and incubated at 37° C. in 5% CO2 for 18-22 hours. On the test day, the medium was removed by centrifugation at 600 rpm for 30 seconds, and 20 μL of stimulation buffer containing 1x tested compound was added with Bravo (Agilent technologies). The plate was then incubated at 37° C. 5% CO2 for 1 hour. After the incubation, 5 μL of IP1-d2 and 5 μL of Tb-Cryp were added to all wells using multidrop Combi(Thermo). After additional incubation at room temperature for 1 hour, the plates were read on Envision with 620 and 665 (Perkin Elmer).
(In TR-FRET formats the signal depends on donor and acceptor labels being close together.)

The target of series [2] is T1, GHSR-1a (HEK293/GHSR1a cell line) (Homo sapiens, UniProt Q92847). Description: Ghrelin antagonist potency (IC50) with calcium FLIPR assay, ghrelin 10 nM. As to the method: (§1) Evaluation of Ghrelin Agonist (EC50) and Antagonist Potency (IC50) with Calcium FLIPR Assay:
(§2) The intracellular calcium assay was carried out in a 384-well format FLIPR™ (Molecular Device) HEK293/GHSR1a cell line. Cells were seeded 24 hr prior to the experiments at an optimal density per well. Preincubation with selected calcium dye lasted for 30-60 min at room temperature or 37° C. Test compounds, dissolved in DMSO, were added at the appropriate time and incubated for 15 min followed by the addition of ghrelin with FlexStation or FLIPR. Relative fluorescence was monitored by the FLIPR™ Molecular Device. EC50 and IC50 values were estimated from dose-response data using GraphPad Prism software. To check for GHSR-1a agonism, the compound was added at t=20 sec. and the calcium response was followed for 2 minutes. To check for GHSR-1a antagonism, the compound and Ghrelin (10 nM) were added to the cells at t=20 sec. and the calcium response was measured for 2 minutes. The potency of the antagonist was calculated by its ability to reduce the ghrelin response. Dose-response curves were made for relevant antagonists.

Series [3] has as its target T1, GHSR-1a (HEK293/GHSR1a cell line). The series can be described thus: Ghrelin agonist potency (EC50) with calcium FLIPR assay. The conditions noted are these: for EC50/EMax: EC50 (Activity): ghrelin agonist potency. As to the method:
as §1, §2

Series [4] is described as follows: Animal PK study in mouse via i.v., p.o. and s.c. administration. As to the method:
• 5. Quench solution: acetonitrile with IS for LC-NIS/NIS analysis • b) Dilute the 20 mg/mL stock liver microsomes to 0.628 mg/mL of protein with 100 mM PBS. • c) Aliquot 398 μL of microsomes protein mixture (0.628 mg/mL) into the incubation plate and place the plate on ice. • d) Spike 2 μL of a substrate stock solution into the incubation wells filled with 398 μL of the protein mixture in order to obtain a test compound concentration of 1.25 μM in each well. • e) Pipette 80 μL of the test compound and microsomes protein mixture into the wells of a stop plate pre-filled with 300 μL of cold quench solution and 20 μL of NADPH regenerating system. The test compound concentration in the wells, measured by LC-MS/MS, represents the concentration at time=0. • f) To determine the test compound concentration when t≠0, pre-incubate the NADPH regenerating system and the incubation plate containing the remaining 320 μL of incubation mixture (microsomes protein and test compound) for 5 minutes at 37° C. • g) Start the incubation reaction by adding 80 μL NADPH regenerating system to each well containing the remaining 320 μL incubation mixture. • h) After 10 min., 30 min., and 90 min. of incubation at 37° C., transfer 100 μL of the incubation mixture (microsomes protein, test compound, and NADPH) into the wells of a stop plate pre-filled with 300 μL of the cold quench solution. Shake well. • i) Centrifuge the stop plate at 5000×g for 10 minutes. Collect and dilute the supernatant 3 times with distilled water. Sample and analyze the test compound concentration for all the wells by LC-MS/MS. Animal PK Studies via i.v. (intravenous), p.o. (orally) and s.c. (subcutaneous) administrations
All treated animals received a single dose of a test compound (either through i.v., p.o., or s.c. administration) according to the regimen shown in the following table:
For oral dose groups, appropriate amount of test compound was prepared in the following formulation carrier: 1% DMSO (increase to 5% maximum if necessary) and 0.5% Methycellulose. Each mouse or rat received by oral gavage 10 mL/kg of the formulation mixture.
For i.v. and s.c dose groups, appropriate amount of test compound was dissolved in 1% DMSO (increase to 5% maximum if necessary), 99% of 20% HP-β-Cyclodextron (w/v). The pH was adjusted accordingly. Each mouse or rat received 5 mL/kg of the formulation mixture. i.v. dose was administered by tail vein injection. Subcutaneous injection was administered over the shoulders, into the loose skin over the neck. At designated time points (e.g., i.v. and s.c.: 0.083, 0.25, 0.5, 1, 2, 4, 8 and 24 hrs; p.o.: 0.25, 0.5, 1, 2, 4, 8 and 24 hrs), systemic samples of blood (50 μL in mouse or 500 μL in rat) were collected by puncture (submandibular vein in mouse or jugular vein in rat) into vacutainers containing EDTA-K2 as anti-coagulant. The blood was centrifuged at 6000 rpm for 8 min at 4° C. to obtain plasma. All plasma samples were stored at −20° C. All plasma samples were added to acetonitrile for protein precipitation and quantitatively analyzed by LC-MS/MS.

A short description of series [5]: Metabolic stability in mouse liver microsomes. As to the method:
(§3) Metabolic Stability Study
(§4) The metabolic stability of compounds in human, dog, rat and mouse liver microsomes was performed according the experimental conditions reported below:
(§5) • a) Prepare the following 5 stock solutions: • 1. Test compound stock solutions: dilute 10 mM solution of dextromethorphan (Dtr) in DMSO, 10 mM solution of diphenhydramine (DPA) in DMSO, 10 mM solution of omeprazole (Ome) in DMSO, 10 mM solution of verapamil (Ver) in DMSO, and 10 mM of an inverse agonist compound in DMSO to 0.25 mM solution each with acetonitrile/water (70/30). • 2. Buffer: 100 mM potassium phosphate Buffer (PBS) at pH 7.4 • 3. Liver microsomes (20 mg/ml): Thaw in 37° C. water bath quickly • 4. 2000 μL: of NADPH regenerating system (1.3 mM). Place this system on ice before use:
• 5. […]
(Microsomes from liver hold many membrane-bound enzymes, among them those of drug oxidation.)

Series [6] can be described thus: Metabolic stability in human liver microsomes. Here is the method:
as §3, §4, §5
• 5. […]

`C[C@H](NC(=O)Nc1ccc(S(=O)(=O)Cc2ccc3c(c2)CNCC3)cc1)c1cccc(Cl)c1Cl`: the EC50 in series [1] (read-out: EC50 (Activity), inverse agonist potency, tested form: HCl) was 18.4 nM. In series [2] (read-out: IC50 (Activity), ghrelin antagonist potency, tested form: HCl), the IC50 came out at 4.1 nM. Further, the “EC50/EMax: EC50 (Activity)” value in series [3] (tested form: HCl) is greater than 30000 nM.
Turning to `COc1ccc([C@H](C)NC(=O)Nc2ccc(S(=O)(=O)Cc3ccc4c(c3)CCNC4)cc2)c(Cl)c1Cl`, the EC50 in series [1] (read-out: EC50 (Activity), inverse agonist potency) came to 25.7 nM. For the same compound, the “PK F” value in series [4] is recorded as 7.91%. Further, in series [4] (i.v.), the “PK CLiv” value is 186.2 mL/min/kg, the “PK Vdiv” value was found to be 16.35 L/kg and the “PK t1/2iv” value was determined as 1.01 h. Further, in series [4] (p.o.), the “PK CLpo” value worked out at 2205 mL/min/kg, the “PK Vdpo” value came to 349.6 L/kg and the “PK t1/2po” value is reported as 1.83 h. Also, in series [5], the “Metabolic Stability Study M = mouse” value was “H = <10 M = <10 R = not reported D = not reported μL/min/mg”. Besides, the IC50 in series [2] (read-out: IC50 (Activity), ghrelin antagonist potency) was 34.7 nM. Further, the “EC50/EMax: EC50 (Activity)” value in series [3] was greater than 30000 nM. Moreover, in series [6], the “Metabolic Stability Study H = human” value is “H = <10 M = <10 R = not reported D = not reported μL/min/mg”.
As for `CC(NC(=O)Nc1ccc(S(=O)(=O)Cc2ccc(CN(C)C)cc2)cc1)c1ccccc1` (centres unmarked), the EC50 in series [1] (read-out: Activity EC50 (ghrelin inverse agonist potency), HEK293/GRLN) was 282 nM; in series [3] (read-out: Activity EC50/EMax: EC50 (ghrelin agonist potency), HEK293/GHSR1a) it was greater than 30000 nM. The IC50 in series [2] (read-out: Activity IC50 (ghrelin antagonist potency), HEK293/GHSR1a, ghrelin 10 nM) was determined as 298 nM.
Consider `CC(NC(=O)Nc1ccc(S(=O)(=O)CC2=CC3CCC(C2)N3C)cc1)c1cccc(Cl)c1Cl` (centres unmarked), for which the EC50 in series [1] (read-out: Activity EC50, ghrelin inverse agonist potency) amounted to 1410 nM. In addition, in series [2] (read-out: Activity IC50, ghrelin antagonist potency), the IC50 is 7470 nM.
